Values from PubChem BioAssay AID1053208 (Peter MacCallum Cancer Centre, 2014)
This is a random part of about 17,000 reagents. 788 of all reagents (4.7%) count as active. 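Calls rest on z-score classes alone; an extra cut-off of viability at most 70% of control was not applied to them.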 The numbers tell different reagents against one gene apart.

- Aim: 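Find knock-downs that sensitise mouse osteosarcoma cells to doxorubicin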 (primary screen)
- Cell system: mouse osteosarcoma cells, early-passage culture from an engineered mouse model of fibroblastic bone tumour
- Reagent: siRNA pool against mouse genes, 40 nM
- Duration: about 120 h (48 h before drug, then 72 h with drug)
- Treatment: doxorubicin 100 nM for 72 h, roughly 30-40% inhibitory dose
- Measurement: 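Luminescent ATP signal taken as viability with or without 100 nM doxorubicin for 72 h; mean of two wells set against non-targeting siRNA and turned into robust z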
- Reading the numbers: viability z-score with doxorubicin and doxorubicin viability vs non-targeting: higher = more viable cells under doxorubicin; viability z-score without drug: higher = more viable cells with knock-down alone; z-score of drug to no-drug ratio: higher = less drug sensitisation by knock-down
- Active means: 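Called active if knock-down leaves viability unchanged without drug (z within -2 to 2) but lowers it with doxorubicin (z at or under -2)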

| Target gene | reagent no. | combined z-score class | viability z-score with doxorubicin | viability z-score without drug | z-score of drug to no-drug ratio | doxorubicin viability vs non-targeting | activity call |
| --- | --- | --- | --- | --- | --- | --- | --- |
| 1600014C10Rik | 1 | no change with or without drug | 0.22 | 0.17 | 0.22 | 0.96 | inactive |
| Ecsit | 1 | no change with or without drug | -1.46 | 1.85 | -2.47 | 0.81 | inactive |
| Ubr7 | 1 | no change with or without drug | -1.8 | 0.34 | -2.02 | 0.78 | inactive |
| Iqub | 1 | high cell count with and without drug | 2.02 | 3.54 | -0.11 | 1.12 | inactive |
| Sftpc | 1 | no change with or without drug | 0.22 | 0.17 | 0.22 | 0.96 | inactive |
| Lamb3 | 1 | no change with or without drug | 0 | 0 | 0.11 | 0.94 | inactive |
| Cep57 | 1 | low cell count with doxorubicin only | -2.47 | -0.51 | -2.25 | 0.72 | active |
| Or8k38 | 1 | no change with or without drug | 0.56 | -0.51 | 1.12 | 0.99 | inactive |
| Zfp668 | 1 | no change with or without drug | -1.01 | -0.67 | -0.56 | 0.85 | inactive |
| Or13l2 | 1 | no change with or without drug | 1.46 | -1.85 | 3.26 | 1.07 | inactive |
| 4833408A19Rik | 1 | no change with or without drug | 1.46 | -1.01 | 2.47 | 1.07 | inactive |
| St6galnac1 | 1 | no change with or without drug | -0.67 | -1.01 | 0.11 | 0.88 | inactive |
| Meis3 | 1 | no change with or without drug | -0.34 | -0.17 | -0.11 | 0.91 | inactive |
| Ifna7 | 1 | low cell count without drug only | -1.91 | -2.87 | 0.11 | 0.77 | inactive |
| Klhl31 | 1 | no change with or without drug | 1.57 | 0.34 | 1.46 | 1.08 | inactive |
| Klhl31 | 2 | no change with or without drug | 1.12 | 0.34 | 1.01 | 1.04 | inactive |
| Irak4 | 1 | no change with or without drug | 0.9 | 0.84 | 0.45 | 1.02 | inactive |
| Trim7 | 1 | no change with or without drug | 1.12 | 0.34 | 1.01 | 1.04 | inactive |
| Or5b12b | 1 | no change with or without drug | -0.45 | -0.17 | -0.22 | 0.9 | inactive |
| Lcn5 | 1 | no change with or without drug | 0.11 | 0.51 | -0.11 | 0.95 | inactive |
| Kcnv2 | 1 | low cell count without drug only | -0.22 | -2.53 | 1.91 | 0.92 | inactive |
| Wdtc1 | 1 | no change with or without drug | 0.79 | 0 | 0.9 | 1.01 | inactive |
| Th | 1 | no change with or without drug | -0.56 | -0.84 | 0.11 | 0.89 | inactive |
| Lnpk | 1 | no change with or without drug | -0.22 | -1.01 | 0.56 | 0.92 | inactive |
| Styxl1 | 1 | no change with or without drug | 0 | 0.17 | 0 | 0.94 | inactive |
| Rtca | 1 | high cell count with and without drug | 2.02 | 2.87 | 0.22 | 1.12 | inactive |
| Vsnl1 | 1 | no change with or without drug | -0.22 | 0.67 | -0.56 | 0.92 | inactive |
| Rbm15b | 1 | no change with or without drug | 0.9 | 1.18 | 0.22 | 1.02 | inactive |
| Bak1 | 1 | high cell count with doxorubicin only | 2.02 | 1.18 | 1.35 | 1.12 | inactive |
| Fgf11 | 1 | no change with or without drug | -0.79 | 0.51 | -1.01 | 0.87 | inactive |
| Hyal3 | 1 | no change with or without drug | 0.22 | -0.84 | 1.01 | 0.96 | inactive |
| Map2k7 | 1 | no change with or without drug | 0.67 | 0.17 | 0.67 | 1 | inactive |
| Plekha6 | 1 | no change with or without drug | -1.57 | 1.18 | -2.25 | 0.8 | inactive |
| Tbl3 | 1 | no change with or without drug | -1.91 | -1.18 | -1.12 | 0.77 | inactive |
| Tmcc2 | 1 | low cell count without drug only | -1.57 | -2.87 | 0.56 | 0.8 | inactive |
| Hsd11b2 | 1 | no change with or without drug | -1.35 | -1.52 | -0.34 | 0.82 | inactive |
| Pcdhb16 | 1 | low cell count with doxorubicin only | -2.02 | -0.51 | -1.69 | 0.76 | active |
| Eci2 | 1 | no change with or without drug | 1.35 | 1.35 | 0.56 | 1.06 | inactive |
| Flt1 | 1 | no change with or without drug | 0.11 | 1.35 | -0.67 | 0.95 | inactive |
| Mrpl19 | 1 | no change with or without drug | -0.45 | -1.18 | 0.45 | 0.9 | inactive |
| Mta3 | 1 | no change with or without drug | -0.67 | 0 | -0.56 | 0.88 | inactive |
| H4c14 | 1 | no change with or without drug | -0.9 | -1.18 | 0 | 0.86 | inactive |
| Tigd4 | 1 | no change with or without drug | 0.45 | -0.17 | 0.67 | 0.98 | inactive |
| Tspan11 | 1 | no change with or without drug | 0 | -0.51 | 0.45 | 0.94 | inactive |
| Cd1d2 | 1 | no change with or without drug | 0.67 | 0.84 | 0.22 | 1 | inactive |
| Gimap5 | 1 | no change with or without drug | -0.79 | -0.51 | -0.34 | 0.87 | inactive |
| Rhno1 | 1 | no change with or without drug | -0.11 | -0.17 | 0.11 | 0.93 | inactive |
| Miga2 | 1 | no change with or without drug | 0 | 1.85 | -1.01 | 0.94 | inactive |
| Adamts4 | 1 | no change with or without drug | -1.69 | -0.67 | -1.24 | 0.79 | inactive |
| Slco1c1 | 1 | no change with or without drug | -0.9 | -1.85 | 0.45 | 0.86 | inactive |
